Experimental data: the supplement of paper PMC11542785
Structures can show the parent of a compound that is named as a salt. ± gives the standard deviation of the averaged measurements. The list shows a part of the results. Single values are uncertain, as repeats are few or missing.

Tested on: Drosophila melanogaster DPAGT1 (Alg7) RNAi eye model
Test: eye size Z-score vs DMSO-treated DPAGT1 model flies; higher = larger eye (suppression of DPAGT1 phenotype)
Conditions: 5 uM

SMILES | eye size Z-score (female) | eye size Z-score
CC1(C)S[C@@H]2[C@H](NC(=O)[C@H](N)c3ccc(O)cc3)C(=O)N2[C@H]1C(=O)O [Amoxicillin] | 0.9 | 
Nc1nc(Cl)nc2c1ncn2[C@H]1C[C@H](O)[C@@H](CO)O1 [Cladribine] |  | 0.3
CN[C@@H]1[C@H](O[C@H]2[C@H](O[C@H]3[C@H](O)[C@@H](O)[C@H](N=C(N)N)[C@@H](O)[C@@H]3N=C(N)N)O[C@@H](C)[C@]2(O)C=O)O[C@@H](CO)[C@H](O)[C@H]1O [Streptomycin sulfate] |  | 0.39
CCCCCCC[N+](CC)(CC)CCCCc1ccc(Cl)cc1 [Clofilium tosylate] |  | -0.4
CCOC(=O)C1=C[C@@H](OC(CC)CC)[C@H](NC(C)=O)[C@@H](N)C1 [Oseltamivir phosphate] |  | 0.65
CNCCCC1c2ccccc2C=Cc2ccccc21 [Protriptyline hydrochloride] |  | -0.56
C[C@]12CCC(=O)C=C1CC[C@@H]1[C@@H]2[C@@H](O)C[C@@]2(C)[C@H]1CC[C@]2(O)C(=O)CO [Hydrocortisone] | -0.04 | 
Oc1ncnc2[nH]ncc12 [Allopurinol] |  | -0.2 ± 0.89
CO/N=C(\C(=O)N[C@@H]1C(=O)N2C(C(=O)OCOC(=O)C(C)(C)C)=C(/C=C\c3scnc3C)CS[C@H]12)c1csc(N)n1 [Cefditoren Pivoxil] |  | 1.2
COc1ccc(CCN(C)CCCC(C#N)(c2ccc(OC)c(OC)c2)C(C)C)cc1OC (centres undefined) [Verapamil hydrochloride] |  | 0.01
CC[N+]1(CC)CCC(=C(c2ccccc2)c2ccccc2)C1C (centres undefined) [Prifinium Bromide] |  | 0.7
Cc1onc(-c2ccccc2)c1-c1ccc(S(N)(=O)=O)cc1 [Valdecoxib] |  | -0.28
CCCc1cc(=O)[nH]c(=S)[nH]1 [Propylthiouracil] |  | 2.04
C[N+]1(CCCCC[N+]2(C)CCCC2)CCCC1 [Pentolinium bitartrate] |  | 1.27
CCCCN(CCCC)CCC(O)c1cc2c(Cl)cc(Cl)cc2c2cc(C(F)(F)F)ccc12 (centres undefined) [Halofantrine hydrochloride] |  | -0.08
C#C[C@]1(O)CC[C@H]2[C@@H]3CCc4cc(O)ccc4[C@H]3CC[C@@]21C [Ethinylestradiol] |  | 0.4
CCOC(=O)C1=C(C)NC(C)=C(C(=O)OCC)C1c1ccccc1/C=C/C(=O)OC(C)(C)C [Lacidipine] |  | 0.08
CCOc1cc(CC(=O)N[C@@H](CC(C)C)c2ccccc2N2CCCCC2)ccc1C(=O)O [Repaglinide] |  | -1.02
COc1ncnc(NS(=O)(=O)c2ccc(N)cc2)c1OC [Sulfadoxine] |  | -0.98
CC(=O)OCC(=O)[C@@]1(O)[C@H](C)C[C@H]2[C@@H]3CCC4=CC(=O)C=C[C@]4(C)[C@@]3(F)[C@@H](O)C[C@@]21C [Dexamethasone acetate] |  | 0.28
O=C(Oc1ccccc1)c1ccccc1O [Phenyl salicylate] |  | 0.69
COc1c(N2C[C@@H]3CCCN[C@@H]3C2)c(F)cc2c(=O)c(C(=O)O)cn(C3CC3)c12 [Moxifloxacin] |  | 0.07

SMILES | eye size Z-score (female) | eye size Z-score
COc1ccc(C(=O)c2ccccc2)c(O)c1 [Oxybenzone] |  | 0.15
CCCCOC(=O)c1ccccc1Nc1cccc(C(F)(F)F)c1 [Ufenamate] |  | 0.7
COc1ccc(C(=O)CC(=O)c2ccc(C(C)(C)C)cc2)cc1 [Avobenzone] |  | -0.14
Nc1nc2c(ncn2COCCO)c(=O)[nH]1 [Acyclovir] |  | 0.48
CCCCCN(CCCCC)C(=O)C(CCC(=O)O)NC(=O)c1ccc(Cl)c(Cl)c1 (centres undefined) [Lorglumide sodium salt] |  | 0.13
CC(C)(C)NC(=O)[C@@H]1C[C@@H]2CCCC[C@@H]2CN1C[C@@H](O)[C@H](Cc1ccccc1)NC(=O)[C@H](CC(N)=O)NC(=O)c1ccc2ccccc2n1 [Saquinavir mesylate] |  | -0.82
CCCC1O[C@@H]2C[C@H]3[C@@H]4CCC5=CC(=O)C=C[C@]5(C)[C@H]4[C@@H](O)C[C@]3(C)[C@]2(C(=O)CO)O1 (some centres undefined) [Budesonide] |  | -0.06
CC(C)Cc1ccc(C(C)C(=O)OCc2ccccn2)cc1 (centres undefined) [Ibuprofen Piconol] |  | -0.13
CC(C(=O)O)c1cccc(C(=O)c2ccccc2)c1 (centres undefined) [Ketoprofen] | 0.37 | 
CC(C)(C)C(=O)C(Oc1ccc(Cl)cc1)n1ccnc1 (centres undefined) [Climbazole] |  | -0.48
Cc1ccccc1OCC(O)CO (centres undefined) [Mephenesin] |  | 0.02
O=C1CN(/N=C/c2ccc([N+](=O)[O-])o2)C(=O)N1 [Nitrofurantoin] |  | 0.63
C[C@H](N)[C@H](O)c1cccc(O)c1 [Metaraminol bitartrate] |  | -0.34
CCN(CC)CCOC(=O)C(Cc1cccc2ccccc12)CC1CCCO1 (centres undefined) [Nafronyl oxalate] |  | 0.27
CC1(C)S[C@@H]2[C@H](NC(=O)C(C(=O)O)c3ccccc3)C(=O)N2[C@H]1C(=O)O (some centres undefined) [Carbenicillin disodium salt] |  | 1.21
O=C1CN(/N=C/c2ccc(-c3ccc([N+](=O)[O-])cc3)o2)C(=O)N1 [Dantrolene sodium salt] |  | 0.81
CCOC(=O)n1ccn(C)c1=S [Carbimazole] |  | -0.21
O=C(O)c1ccccc1Nc1cc(Cl)ccc1C(=O)O [Lobenzarit disodium] |  | -0.03
CC1(C)S[C@@H]2[C@H](NC(=O)[C@H](C(=O)O)c3ccsc3)C(=O)N2[C@H]1C(=O)O [Ticarcillin sodium] |  | 0.97
Cc1cc(NS(=O)(=O)c2ccc(N)cc2)no1 [Sulfamethoxazole] |  | -0.67
CN[C@@H]1[C@@H](O)[C@@H](O[C@@H]2[C@@H](O)[C@H](O[C@H]3OC(CN)=CC[C@H]3N)[C@@H](N)C[C@H]2N)OC[C@]1(C)O [Sisomicin sulfate] |  | 0.64
CC[C@H]1OC(=O)C[C@@H](O)[C@H](C)[C@@H](O[C@@H]2O[C@H](C)[C@@H](O[C@H]3C[C@@](C)(O)[C@@H](O)[C@H](C)O3)[C@H](N(C)C)[C@H]2O)[C@@H](CC=O)C[C@@H](C)C(=O)/C=C/C(C)=C/[C@@H]1CO[C@@H]1O[C@H](C)[C@@H](O)[C@@H](OC)[C@H]1OC [Tylosin] |  | -0.06

Single entries from the entries so far:
eye size Z-score with Cc1cc(NS(=O)(=O)c2ccc(N)cc2)no1 [Sulfamethoxazole] reads -0.67
eye size Z-score with O=C1CN(/N=C/c2ccc(-c3ccc([N+](=O)[O-])cc3)o2)C(=O)N1 [Dantrolene sodium salt] reads 0.81
eye size Z-score with CC1(C)S[C@@H]2[C@H](NC(=O)C(C(=O)O)c3ccccc3)C(=O)N2[C@H]1C(=O)O (some centres undefined) [Carbenicillin disodium salt] reads 1.21
